Measurements reported in PubChem BioAssay AID1259405 (NCATS, 2018).
Assay: 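Silenced genes that increase secreted GFP made by CHO cells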 (primary screen). Cell system: Chinese hamster CHO-K1 ovary cells with stable secreted eGFP expression. Knock-down reagent: single siRNA against mouse genes, 0.8 pmol siRNA per well (2 µl of 400 nM stock). Duration: 3 days. Measured: 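Per-well intracellular GFP measured by laser scanning cytometry, plus viability from ATP luminescence, each relative to plate median of non-targeting control wells, in %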. Direction: GFP, % of control: higher = more GFP per well, higher productivity; viability (ATP), % of control: higher = more viable cells (more ATP). Rule for the call: 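a knock-down is called active if GFP reaches 120% or more of non-targeting control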.
Here is one part, drawn at random, of about 50,000 reagents tested. Over the whole deposit, about 4,000 (8%) were called active. 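Mouse siRNA library applied to hamster cells; one well for each siRNA.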 The numbers tell different reagents against one gene apart.

target | reagent no. | GFP, % of control | viability (ATP), % of control | call
Mical2 | 1 | 62.8 | 86 | inactive
Mical2 | 2 | 69.9 | 85.8 | inactive
Mical2 | 3 | 72.6 | 77.1 | inactive
Or52d3 | 1 | 87.6 | 83.4 | inactive
Or52d3 | 2 | 79.2 | 74.8 | inactive
Or52d3 | 3 | 30 | 48.7 | inactive
Laptm4a | 1 | 72.4 | 61.9 | inactive
Laptm4a | 2 | 88.8 | 66.2 | inactive
Laptm4a | 3 | 80.1 | 84.2 | inactive
Cd200r2 | 1 | 81.8 | 54.2 | inactive
Cd200r2 | 2 | 67.5 | 82.4 | inactive
Cd200r2 | 3 | 62 | 43.4 | inactive
Ces1d | 1 | 97 | 60.5 | inactive
Ces1d | 2 | 101 | 98.3 | inactive
Ces1d | 3 | 44.5 | 54.4 | inactive
Rpl22l1 | 1 | 82 | 63.1 | inactive
Rpl22l1 | 2 | 82.4 | 75.5 | inactive
Rpl22l1 | 3 | 115 | 59.4 | inactive
Plpp1 | 1 | 69.8 | 51.2 | inactive
Plpp1 | 2 | 61 | 63 | inactive
Plpp1 | 3 | 99.9 | 74.5 | inactive
Or51a43 | 1 | 46.7 | 58.2 | inactive
Or51a43 | 2 | 148 | 69 | active
Or51a43 | 3 | 50 | 80 | inactive
Ppm1e | 1 | 91.9 | 95.6 | inactive
Ppm1e | 2 | 87.4 | 73.7 | inactive
Ppm1e | 3 | 82.2 | 74.5 | inactive
Mylpf | 1 | 79.5 | 93 | inactive
Mylpf | 2 | 56.2 | 59.8 | inactive
Trpv5 | 1 | 89.4 | 106 | inactive
Trpv5 | 2 | 88.2 | 85.8 | inactive
Trpv5 | 3 | 89.3 | 103 | inactive
2810407A14Rik | 1 | 65.8 | 68.4 | inactive
2810407A14Rik | 2 | 83.1 | 110 | inactive
2810407A14Rik | 3 | 58.7 | 54.7 | inactive
Pafah1b1 | 1 | 89.8 | 107 | inactive
Pafah1b1 | 2 | 106 | 77.6 | inactive
Pafah1b1 | 3 | 29.4 | 31.3 | inactive
Prmt7 | 1 | 190 | 83.7 | active
Prmt7 | 2 | 109 | 146 | inactive
Prmt7 | 3 | 60 | 81.5 | inactive
Psme2 | 1 | 88.6 | 54.9 | inactive
Psme2 | 2 | 88.1 | 84.2 | inactive
Psme2 | 3 | 70.8 | 98.6 | inactive
Lrrc57 | 1 | 76.5 | 57.1 | inactive
Lrrc57 | 2 | 96.2 | 72.9 | inactive
Lrrc57 | 3 | 73.8 | 97.2 | inactive
Or5an10 | 1 | 46.7 | 39 | inactive
Or5an10 | 2 | 62.1 | 62.2 | inactive
Or5an10 | 3 | 107 | 67.3 | inactive
Prr5l | 1 | 57.1 | 57.2 | inactive
Prr5l | 2 | 93.5 | 80.6 | inactive
Prr5l | 3 | 53.4 | 55.6 | inactive
Sbp | 1 | 59.9 | 80.2 | inactive
Sbp | 2 | 55.2 | 77.2 | inactive
Sbp | 3 | 59.4 | 67.8 | inactive
Cdk7 | 1 | 93.4 | 59.6 | inactive
Azi2 | 1 | 82.3 | 75.8 | inactive
Azi2 | 2 | 68 | 70 | inactive
Azi2 | 3 | 76.8 | 39.5 | inactive
Or4l15 | 1 | 74 | 88.9 | inactive
Or4l15 | 2 | 78 | 82 | inactive
Or4l15 | 3 | 81.7 | 82 | inactive
Mettl13 | 1 | 36.9 | 44.7 | inactive
Mettl13 | 2 | 61.3 | 81.3 | inactive
Mettl13 | 3 | 79.4 | 91.2 | inactive
Clca1 | 1 | 51.8 | 92.8 | inactive
Clca1 | 2 | 46.9 | 65.6 | inactive
Clca1 | 3 | 54.4 | 78.8 | inactive
Plxdc1 | 1 | 70.8 | 59.5 | inactive
Plxdc1 | 2 | 81.7 | 89.4 | inactive
Plxdc1 | 3 | 77.2 | 118 | inactive
Cracr2b | 1 | 59.4 | 56 | inactive
Cracr2b | 2 | 74 | 71.8 | inactive
Cracr2b | 3 | 93.9 | 104 | inactive
Hmgcr | 1 | 75.3 | 92.5 | inactive
Hmgcr | 2 | 91 | 96.8 | inactive
Hmgcr | 3 | 25.8 | 56.2 | inactive
Actn3 | 1 | 62.2 | 65.2 | inactive
Actn3 | 2 | 107 | 82.7 | inactive
Ugt3a1 | 1 | 21.4 | 13.8 | inactive
Ugt3a1 | 2 | 67.2 | 63.9 | inactive
Ugt3a1 | 3 | 81.1 | 61.3 | inactive
Hdac7 | 1 | 86.4 | 76.7 | inactive
Hdac7 | 2 | 179 | 104 | active
Hdac7 | 3 | 68.5 | 90.5 | inactive
Hdac7 | 4 | 98.6 | 95.3 | inactive
Hdac7 | 5 | 81.9 | 84.2 | inactive
Thpo | 1 | 68.8 | 75.7 | inactive
Thpo | 2 | 70.4 | 77.8 | inactive
Thpo | 3 | 95.3 | 56.7 | inactive
Clec16a | 1 | 88.2 | 100 | inactive
Clec16a | 2 | 82.3 | 36.8 | inactive
Clec16a | 3 | 105 | 101 | inactive
Bmpr2 | 1 | 67.8 | 75.7 | inactive
Il36a | 1 | 49.9 | 63.9 | inactive
Il36a | 2 | 61.1 | 61.6 | inactive
Il36a | 3 | 45.6 | 38.6 | inactive
Pdhb | 1 | 53.4 | 90.6 | inactive
Pdhb | 2 | 32.7 | 56.9 | inactive
Pdhb | 3 | 73.7 | 81.5 | inactive
Mrpl28 | 1 | 89.4 | 74.6 | inactive
Mrpl28 | 2 | 95.7 | 72.5 | inactive
Mrpl28 | 3 | 87.8 | 66 | inactive
Ppa2 | 1 | 76.5 | 55.6 | inactive
Ppa2 | 2 | 57.6 | 70.7 | inactive
Ppa2 | 3 | 97.8 | 97.5 | inactive

Limited to “GFP, % of control”, for 9 of the entries above:
Or5an10 #3 = 107
Prr5l #1 = 57.1
Prr5l #2 = 93.5
Prr5l #3 = 53.4
Sbp #1 = 59.9
Sbp #2 = 55.2
Sbp #3 = 59.4
Cdk7 = 93.4
Azi2 #1 = 82.3
